Experimental data: PubChem BioAssay AID2685 (National Center for Advancing Translational Sciences (NCATS), 2010)
The other results are listed elsewhere or left out. These are further read-outs of the screen, such as a control signal, another cell line or another target. No call is given for them. The list favours compounds with an active or inconclusive main result. Potencies come from curve fits of mixed quality, noted in brackets.

Assay: qHTS Assay for Lipid Storage Modulators in Drosophila S3 Cells;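 as to cell number change: cells counted by Cell Tracker Red CMTPX staining in the red channel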
Conditions: BODIPY lipid droplet fluorescence, 18-24 h; for cell number change: measured here: cell count max response, cells fed with added oleic acid
In short: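 Drosophila S3 cells loaded with oleic acid (400 uM, as added) and compounds at several concentrations; lipid droplets imaged by 488-nm laser-scanning cytometry, 500–530 nm intensity and object ratio to cell channel. Percent activity normalized to 20 uM Triacsin C.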

[1] = measured here: lipid fluorescence (Fed channel) AC50, cells fed with added oleic acid
[2] = measured here: cell number channel AC50, cells fed with added oleic acid

Row | Structure (SMILES) | cell number change [%] | AC50 [1] | AC50 [2]
1 | CCOC(=O)N1CCN(C(=O)c2ccc3nc(N4CCC(C)CC4)sc3c2)CC1 | -4.31 |  | 
2 | COc1cc(-c2nc(C(F)(F)F)c(OC)o2)cc(OC)c1OC | -7.3 |  | 
3 | CCC(=O)NCc1ccc2[nH]c(C)cc2c1 | 27.4 | 5.8 µM [rising, full curve, poor fit] | 
4 | COc1ccc(C(=O)CSc2nnc(-c3ccco3)n2C)cc1 | 1.1 | 0.058 µM [falling, full curve] | 
5 | CC/C(O)=C1\C(=O)CCCC1=NCCc1c(C)[nH]c2ccc(C)cc12 | 2.72 |  | 0.103 µM [rising, full curve]
6 | NC(N)=NC1=NC(=O)/C(=C/c2ccccc2-n2cccn2)S1 | 8.05 | 0.82 µM [falling, full curve, poor fit] | 
7 | O=C(CSc1nnnn1C1CC2CCC1C2)Nc1ccnc2ccccc12 (stereo not drawn) | -86.5 | 18.4 µM [falling, partial curve] | 
8 | COc1cc(-c2nc3ccccc3nc2-c2ccc(O)c(OC)c2)ccc1O | -7.09 | 23.1 µM [falling, single point] | 
9 | COc1ccccc1NC(=O)C1Cc2ccccc2CN1C(=O)c1ccco1 (stereo not drawn) | 10.8 |  | 
10 | O=C(NC1CCCCC1)c1cccc(N2C(=O)CCC2=O)c1 | 139 | 0.651 µM [rising, full curve] | 23.1 µM [rising, partial curve]
11 | O=C(Nc1ccccc1C(=O)OCn1nnc2ccccc2c1=O)c1ccco1 | -24.3 | 0.651 µM [rising, full curve] | 
12 | CCN1CCN(c2ccc(N3CCN(C(=O)c4ccc(Br)o4)CC3)nn2)CC1 | 19.3 |  | 
13 | O=C1NC2(CCCC2)C(=O)N1CC(=O)N(Cc1ccccc1)c1ccccc1 | 10 |  | 
14 | O=C(NCc1ccc(F)cc1)N1CCN(S(=O)(=O)c2ccccc2F)CC1 | 19.8 |  | 
15 | CCc1cccc(NC(=O)C2CCCN2S(=O)(=O)c2ccc3c(c2)n(C)c(=O)c(=O)n3C)c1 (stereo not drawn) | -21.6 | 0.00517 µM [falling, full curve, poor fit] | 
16 | Cc1c(C(=O)O)sc2nc(-c3cccs3)cc(C(F)(F)F)c12 | 13.5 | 29.1 µM [rising, single point] | 
17 | O=C(NCCOC(=O)c1ccc(F)cc1)c1ccc(F)cc1 | 23.4 | 29.1 µM [rising, single point] | 
18 | O=C(Oc1ccc2ccc(=O)oc2c1)N1CCOCC1 | 2.59 | 3.66 µM [rising, single point] | 
19 | Cc1ccc(S(=O)(=O)CCC(=O)Nc2nnc(-c3ccc(F)cc3)o2)cc1 | 50.6 |  | 16.4 µM [rising, single point]
20 | Brc1ccc(CNCCCSc2ncccn2)cc1 | -4.7 | 2.31 µM [rising, partial curve, poor fit] | 
21 | OCCNc1ncnc2c1c(-c1ccccc1)c(-c1ccccc1)n2Cc1ccco1 |  | 0.58 µM [falling, single point] | 

Row | Structure (SMILES) | cell number change [%] | AC50 [1] | AC50 [2]
22 | O=C(COC(=O)/C=C/c1cccc(C(F)(F)F)c1)NCc1ccccc1 | -7.51 |  | 0.259 µM [falling, full curve, poor fit]
23 | O=C(c1cc2c(s1)-c1ccccc1OC2)N1CCc2ccccc2C1 |  | 6.51 µM [rising, full curve] | 
24 | CC1CN(c2cc(=O)n(-c3cccc(Br)c3)c(=O)[nH]2)CC(C)O1 (stereo not drawn) | -82.9 | 5.17 µM [falling, full curve] | 25.9 µM [falling, partial curve, poor fit]
25 | CN1C(C(=O)NCC2CC2)CC2Cn3c(nc4cc(Cl)c(Cl)cc43)C21 (stereo not drawn) | 19.7 |  | 
26 | CCC(C)c1ccc2oc(-c3ccc(NC(=O)Cn4cnc5c(=O)n(C)c(=O)n(C)c54)cc3)nc2c1 (stereo not drawn) |  | 1.3 µM [rising, full curve] | 0.461 µM [rising, full curve]
27 | O=C(O)/C=C\C(=O)Nc1cc(O)ccc1[N+](=O)[O-] | 5.43 |  | 
28 | N#CC1(NC(=O)CSc2nncn2-c2ccccc2F)CCCC1 | -17.1 | 0.461 µM [falling, full curve, poor fit] | 
29 | COc1ccc(NC(=O)c2cc(S(=O)(=O)N3CCCCC3)c[nH]2)cc1Cl | 33.5 | 0.651 µM [falling, partial curve, poor fit] | 0.116 µM [rising, full curve, poor fit]
30 | COC(=O)CCC(=O)N1CCCC(C(=O)c2cc(F)ccc2F)C1 (stereo not drawn) | -15.7 | 0.164 µM [falling, full curve, poor fit] | 
31 | CCOC(=O)C1C(=O)C=C(c2ccc(Br)cc2)CC1c1ccco1 (stereo not drawn) | -5.72 | 0.0231 µM [rising, full curve, poor fit] | 
32 | Cn1c(C(=O)N2CCCC(C(=O)NCCCSC3CCCCC3)C2)cc2sccc21 (stereo not drawn) | -35.1 | 25.9 µM [falling, partial curve] | 25.9 µM [falling, partial curve]
33 | COc1ccc(CCC(=O)N2CCN(S(=O)(=O)c3ccc(C)cc3)CC2)cc1 | -38.8 | 4.61 µM [falling, full curve, poor fit] | 5.8 µM [falling, full curve, poor fit]
34 | O=C(CN1C2=NCCCN2c2ccccc21)c1ccc(Cl)cc1Cl | 1.05 |  | 
35 | Cc1cc(NC(=O)CCCN2C(=O)/C(=C/c3cccs3)SC2=S)no1 |  |  | 6.51 µM [rising, single point]
36 | O=S(=O)(c1ccc(Cl)c(NC(=S)N/N=C/c2ccc(O)cc2)c1)N1CCOCC1 | -5.68 | 2.91 µM [rising, partial curve, poor fit] | 
37 | O=C(CSc1nnc(-c2cccs2)o1)N1CCCCC1 | 7.55 |  | 
38 | O=C(NCc1ccco1)c1ccc(Cn2c(=O)c3ccccc3n(Cc3ccc(Cl)cc3)c2=O)cc1 |  |  | 0.651 µM [rising, single point]
39 | Cc1ccccc1NS(=O)(=O)c1cccc(-c2nnc(-c3ccccc3)o2)c1 | -12.1 |  | 
40 | CCOC(=O)c1c(-c2ccc(F)cc2)csc1NC(=O)CN1C(=O)NC2(CCCCC2C)C1=O (stereo not drawn) | -14.9 | 29.1 µM [falling, single point] | 
41 | CCOC(=O)c1ccc2nc(NC(C)=O)sc2c1 | 5.63 |  | 0.13 µM [rising, full curve, poor fit]
42 | N#CCC(=O)Nc1ccc(C(=O)OC(C(=O)Nc2cc(C(F)(F)F)ccc2Cl)c2ccccc2)cc1 (stereo not drawn) | -25.6 | 29.1 µM [falling, single point] | 

Row | Structure (SMILES) | cell number change [%] | AC50 [1] | AC50 [2]
43 | CCc1nnc(NC(=O)C2=NN(C3CCS(=O)(=O)C3)C(=O)CC2)s1 (stereo not drawn) | -9.44 | 4.11 µM [falling, full curve, poor fit] | 
44 | CC(=O)N1CCN(C(=O)Nc2cccc(C(F)(F)F)c2)CC1 | -4.02 | 3.26 µM [falling, single point] | 0.731 µM [falling, single point]
45 | COC(C(=O)NC(C(C)C)C(C)C)c1ccccc1 (stereo not drawn) | -19.8 | 29.1 µM [falling, single point] | 
46 | COCCN1CCn2c(nc3cc(NC(=O)c4ccc(OC)cc4)ccc32)C1 | 30 | 4.11 µM [rising, full curve] | 4.11 µM [rising, partial curve]
47 | O=C(CSc1cccc[n+]1[O-])c1cc2ccccc2o1 | -6.5 | 4.11 µM [rising, partial curve, poor fit] | 0.731 µM [rising, single point]
48 | CCSc1sccc1C1C(C#N)=C(N)N(c2cccnc2)C2=C1C(=O)CCC2 (stereo not drawn) | 121 | 3.26 µM [rising, partial curve] | 5.8 µM [rising, partial curve]
49 | Cc1ccnc2nc(C(=O)OCC(=O)NC(=O)NCc3ccco3)nn12 | -63.4 |  | 32.6 µM [falling, partial curve, poor fit]
50 | O=C(CCCC(=O)N1CCN(c2ccc([N+](=O)[O-])cc2)CC1)c1ccccc1 | 0.498 | 1.84 µM [falling, partial curve] | 
51 | CCC(=O)NNC(=O)c1c(O)c2ccccc2[nH]c1=O | 22.6 |  | 
52 | O=C(NCc1ccc(F)cc1)C1CC(=O)N(C2CCCCC2)C1 (stereo not drawn) | -7.63 | 29.1 µM [falling, single point] | 
53 | COc1ccc(CC2C(=O)OC(C)(C)OC2=O)cc1 | 1.78 | 0.82 µM [falling, full curve, poor fit] | 
54 | Cn1c(=O)c2c(ncn2CC(O)CNc2ccc(Br)cc2)n(C)c1=O (stereo not drawn) | -9.72 | 20.6 µM [rising, partial curve, poor fit] | 
55 | CCN(CC)CCN1CCn2c3c(c4cc(C)ccc42)CCCC31 (stereo not drawn) |  | 11.6 µM [rising, partial curve, poor fit] | 
56 | O=C(O)c1cc(S(=O)(=O)N2CCCCC2)ccc1N1CCCCC1 | 0.373 |  | 
57 | Cc1cccc(OCC(=O)Nc2ccccc2N2CCCCC2)c1C |  |  | 0.58 µM [rising, single point]
58 | COCCn1c(C2CCCCC2)nc2sc3ccccc3c(=O)c2c1=O | -39.5 |  | 29.1 µM [falling, single point]
59 | CCOc1ccc(N2CC(C(=O)Nc3ccc(S(=O)(=O)N4CCCC4)cc3)CC2=O)cc1 (stereo not drawn) | 20.7 |  | 
60 | CCn1cc(C(=O)NCCCN2CCC(C)CC2)c(=O)c2cc(S(=O)(=O)N(C)C3CCCCC3)ccc21 | 8.75 | 6.51 µM [rising, partial curve, poor fit] | 
61 | Cn1c(=O)n(C)c2cc(S(=O)(=O)N3CCCCC3)ccc21 | -2.94 | 16.4 µM [rising, partial curve] | 
62 | FC(F)(F)c1cnc(Sc2ncn[nH]2)c(Cl)c1 | -15.3 | 5.17 µM [falling, full curve] | 

Three compounds from above, arranged by number of heavy atoms, low to high.
Row | Structure (SMILES) | cell number change [%] | AC50 [1] | AC50 [2]
53 | COc1ccc(CC2C(=O)OC(C)(C)OC2=O)cc1 | 1.78 | 0.82 µM [falling, full curve, poor fit] | 
54 | Cn1c(=O)c2c(ncn2CC(O)CNc2ccc(Br)cc2)n(C)c1=O (stereo not drawn) | -9.72 | 20.6 µM [rising, partial curve, poor fit] | 
49 | Cc1ccnc2nc(C(=O)OCC(=O)NC(=O)NCc3ccco3)nn12 | -63.4 |  | 32.6 µM [falling, partial curve, poor fit]
